Results from patent publication US7728128B2, “Dibenzo[c,h][1,5]naphthyridines and their use as DNA probes” (Institut National de la Sante et de la Recherche Medicate …, priority 2006, dated 2010).
For at least one compound, name, drawing or mass did not settle the structure.

What was measured:
CT DNA [1] = assay: viscometry (hydrodynamic studies) of CT DNA solutions; type: binding, calf; conditions: CT DNA 0.5 mM, drug 0.1 mM (0.2 dye/bp ratio)
Protocol: Calf thymus (CT) DNA was dissolved in 50 mM Na-phosphate buffer, pH 7.2, to a concentration of 0.1 or 0.5 mM relative to base pairs as described in the legend for FIGS. 3A and B. DNA solution was allowed to run through a custom-made capillary viscometer and the time necessary for the meniscus to pass a certain distance was measured using a stopwatch. All experiments were performed at 23° C. Viscosity values were calculated using the equation: η=(t−t0)/t0, where t is the flow time of DNA solution (with or without dye), and t0 is the flow time of Na-phosphate buffer alone. For each control and DNA solutions with dyes flow times were measured three to five times. Viscosity of DNA solutions with dyes were calculated as (η/η0)^1/3, where η0 and η are relative viscosities of the CT DNA solution in the absence and presence of the dye, respectively. […] Average viscosity values and standard error of the mean (SEM) were determined using (η/η0)^1/3 values calculated for each time flow measurement. […]
The inventors then wondered whether the increase in viscosity is equally matched by the increase in fluorescence intensity. […] To correlate the increase in viscosity with fluorescence, the inventors measured fluorescence intensities at 484 nm of the compound I/DNA solutions used for the viscosity measurements.

CT DNA [2] = conditions: bound to DNA, reported (Le Pecq 1971); cited from earlier work

Question: Which results are given for CC[n+]1c(-c2ccccc2)c2cc(N)ccc2c2ccc(N)cc21 [ethidium bromide, reference compound]?
Answer: effect on viscosity of DNA solution (CT DNA [1]): increasing the viscosity of the DNA solution; quantum yield (CT DNA [2]): 15%
